Measurements reported in PubChem BioAssay AID1259308 (NCATS, 2017)

- Purpose: 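Candidate targets for better recombinant protein yield in mammalian cells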 (primary screen)
- System: human HEK293 embryonic kidney cells stably expressing firefly luciferase (HEK-CMV-Luc2-Hygro)
- Knock-down reagent: single siRNA against human genes, 0.8 pmol siRNA per well
- Time to read-out: 72 h
- Detection: 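Luciferase light (ONE-Glo) measured on one replicate plate set and viability (CellTiter-Glo) on the other, scaled to a negative control siRNA, with robust z-scores and luciferase per cell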
- Scale: total luciferase, z-score and total luciferase, % of control: higher = more reporter protein produced
- Rule for the call: 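Active when the median/MAD z-score for overall luciferase is greater than 3; a gene was taken forward for validation with new siRNAs if at least two of its three siRNAs passed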
- Calls: active = raised luciferase; inactive = no rise
In all, the deposit lists about 59,000 reagents; shown is a random part of them. About 1,510 of them (2.6%) count as active. 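Calls use total luciferase alone and ignore viability, so some active siRNAs may act by altering cell number.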 Unmarked entries are inactive. Reagents against one gene are numbered here. Further read-outs or replicates are left out here.

Target gene | siRNA no. | total luciferase, z-score | total luciferase, % of control
POU3F1 | 1 | 0.852 | 98.8
POU3F1 | 2 | 0.233 | 86.5
POU3F1 | 3 | 1.33 | 108
SYCP2 | 1 | 0.142 | 84.7
SYCP2 | 2 | 0.372 | 89.3
SYCP2 | 3 | 0.417 | 90.2
MFSD2B | 1 | -0.293 | 76.1
MFSD2B | 2 | -1.5 | 52
MFSD2B | 3 | 0.229 | 86.4
NMB | 1 | -0.637 | 69.2
NMB | 2 | -0.79 | 66.2
NMB | 3 | 1.97 | 121
WDR13 | 1 | -2.1 | 40.2
WDR13 | 2 | -0.00171 | 81.9
WDR13 | 3 | -0.222 | 77.5

An excerpt from the list above, for reference:
Target gene | siRNA no. | total luciferase, z-score | total luciferase, % of control
NMB | 2 | -0.79 | 66.2
NMB | 3 | 1.97 | 121
WDR13 | 1 | -2.1 | 40.2
WDR13 | 2 | -0.00171 | 81.9
WDR13 | 3 | -0.222 | 77.5

The results go on.
Target gene | siRNA no. | total luciferase, z-score | total luciferase, % of control
EYS | 1 | -1.69 | 48.4
EYS | 2 | -0.73 | 67.4
EYS | 3 | 0.631 | 94.4
EYS | 4 | -0.463 | 72.7
EYS | 5 | -0.306 | 75.8
EYS | 6 | -1.19 | 58.2
EYS | 7 | 0.32 | 88.3
EYS | 8 | 0.839 | 98.6
EYS | 9 | 0.299 | 87.8
TNIK | 1 | -0.909 | 63.8
TNIK | 2 | 1.3 | 108
TNIK | 3 | 0.417 | 90.2
TRPV1 | 1 | 0.695 | 95.7
TRPV1 | 2 | -0.395 | 74
TRPV1 | 3 | 0.366 | 89.2
WDHD1 | 1 | 1.16 | 105
WDHD1 | 2 | 0.0123 | 82.1
WDHD1 | 3 | -0.686 | 68.2
TATDN2 | 1 | -0.767 | 66.6
TATDN2 | 2 | -0.137 | 79.2
TATDN2 | 3 | 0.752 | 96.8
ARPC2 | 1 | -0.055 | 80.8
ARPC2 | 2 | -1.43 | 53.5
ARPC2 | 3 | -0.279 | 76.3
